Values from PubChem BioAssay AID1159617 (Peter MacCallum Cancer Centre, 2016)
This is an unselected part of 153 reagents. 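Values are robust z-scores scaled across the full screen; higher values mean larger or longer cells.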 Further read-outs or replicates are left out here. The record does not give: the time to read-out.

- Aim: 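Follow-up of migration screen hits for effects on endothelial cell form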 (tertiary re-screen of migration hits)
- System: human HMBEC blood microvascular and HDLEC lymphatic endothelial cells
- Reagents: siRNA pool against human genes, 40 nM
- Measurement: 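Automated imaging of phalloidin actin stain giving per-cell area and length; replicate means turned into robust z-scores relative to all screened samples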
- Reading the numbers: cell area z-score, HMBEC and cell area z-score, HDLEC: higher = larger cells

Target gene	cell area z-score, HMBEC	cell area z-score, HDLEC
AKT3 (AKT serine/threonine kinase 3)	0.4	-0.15
RTL8C (retrotransposon Gag like 8C)	-0.33	0.01
PRKG2 (protein kinase cGMP-dependent 2)	-1.06	-0.83
CEPT1 (choline/ethanolamine phosphotransferase 1)	1.38	1.92
FMC1 (formation of mitochondrial complex V assembly factor 1)	0.6	1.03
SELPLG (selectin P ligand)	-0.17	1.7
PTH2 (parathyroid hormone 2)	-0.85	-1.2
FCRL2 (Fc receptor like 2)	-1.52	-1.14
CNKSR1 (connector enhancer of kinase suppressor of Ras 1)	0.54	0.6
TMIGD2 (transmembrane and immunoglobulin domain containing 2)	-0.4	1.61
SPICE1 (spindle and centriole associated protein 1)	0.54	0.54
PPP1CA (protein phosphatase 1 catalytic subunit alpha)	-1.17	-0.92
ITPKA (inositol-trisphosphate 3-kinase A)	-1.58	-0.21
AOC3 (amine oxidase copper containing 3)	-1	-0.3
SDCCAG8 (SHH signaling and ciliogenesis regulator SDCCAG8)	1.26	1.99
KRT80 (keratin 80)	-0.28	-0.21
BDH2 (3-hydroxybutyrate dehydrogenase 2)	-0.05	0.19
ABCA2 (ATP binding cassette subfamily A member 2)	0.7	0.38
CARD10 (caspase recruitment domain family member 10)	-0.07	0.67
CDC42 (cell division cycle 42)	-0.97	-0.15
ANGPT2 (angiopoietin 2)	-0.04	0.85
APOBEC3D (apolipoprotein B mRNA editing enzyme catalytic subunit 3D)	-0.01	-0.51
C5AR1 (complement C5a receptor 1)	-0.2	-1.2
CRABP2 (cellular retinoic acid binding protein 2)	-0.99	-0.35
APOA2 (apolipoprotein A2)	0.84	1.13
ATM (ATM serine/threonine kinase)	-1.3	-0.03
PRKD3 (protein kinase D3)	-0.97	-1.29
NFATC4 (nuclear factor of activated T cells 4)	-1.07	-0.53
UGT1A7 (UDP glucuronosyltransferase family 1 member A7)	2.79	4.05
JUN (Jun proto-oncogene, AP-1 transcription factor subunit)	-0.38	-0.11
MPP3 (MAGUK p55 scaffold protein 3)	0.83	1.57
CCS (copper chaperone for superoxide dismutase)	-0.27	-0.15
PI4KA (phosphatidylinositol 4-kinase alpha)	-1.17	-0.98
ISL2 (ISL LIM homeobox 2)	0.14	-0.45
SLC26A11	-1.13	-1.29
BTK (Bruton tyrosine kinase)	-0.15	-0.32
CHST8 (carbohydrate sulfotransferase 8)	0.65	0.31
LGALS1 (galectin 1)	0.46	0.29
USP25 (ubiquitin specific peptidase 25)	0.58	0.21
MESP2 (mesoderm posterior bHLH transcription factor 2)	-0.18	0.52
ZNF76 (zinc finger protein 76)	-0.31	0.1
BORCS6 (BLOC-1 related complex subunit 6)	2.07	0.55
CALM2 (calmodulin 2)	0.63	-0.68
AXL (AXL receptor tyrosine kinase)	-0.96	-0.8
AKR1C6P (aldo-keto reductase family 1 member C6, pseudogene)	-0.75	-0.87
SRMS	0	-0.07
PGBD5 (piggyBac transposable element derived 5)	-0.39	-0.6
HPDL (4-hydroxyphenylpyruvate dioxygenase like)	-0.69	-1.24
NFKBIZ (NFKB inhibitor zeta)	-0.76	-0.73
SEPTIN4 (septin 4)	0.75	-0.33
GCGR (glucagon receptor)	1.15	0.26
APBA3 (amyloid beta precursor protein binding family A member 3)	-0.57	-0.7
CHSY3 (chondroitin sulfate synthase 3)	-0.78	-0.81
GCK (glucokinase)	-1.46	-1.02
TMEM132E (transmembrane protein 132E)	0.55	-0.8
PIK3AP1 (phosphoinositide-3-kinase adaptor protein 1)	0.55	1.16
CATSPERT (catsper channel auxiliary subunit tau)	0.08	0.84

Entries listed so far whose target name begins with F or f (2):
Target gene	cell area z-score, HMBEC	cell area z-score, HDLEC
FMC1 (formation of mitochondrial complex V assembly factor 1)	0.6	1.03
FCRL2 (Fc receptor like 2)	-1.52	-1.14
